Laboratory results reported in PubChem BioAssay AID901 (National Center for Advancing Translational Sciences (NCATS), 2007).
The other results are listed elsewhere or left out. The main result of the screen is listed elsewhere. These columns were measured beside it and carry no call. Compounds called inactive in the main read-out are mostly missing here. Words in brackets tell the shape of the fitted curve; partial curves, single points and poor fits give uncertain potencies.

Assay: qHTS Assay for Identifying the Cell-Membrane Permeable IMPase Inhibitors
Conditions: CHO-M1 cells, IP1 accumulation, HTRF TR-FRET ratio; measured here: donor channel 620 nm AC50

| SMILES | AC50 |
| --- | --- |
| COc1cc(C)nc(N2CCCC(C(=O)Nc3cc(Cl)ccc3OC)C2)n1 (stereo not given) | 5.01 µM [rising, single point] |
| CCOCCCNC(=O)C1CCN(S(=O)(=O)N2CCCCC2)CC1 | 5.01 µM [rising, single point] |
| COc1cc(S(=O)(=O)N2CCN(c3ccc(F)cc3)CC2)ccc1Cl | 0.0501 µM [rising, full curve, poor fit] |
| C(=N\n1cnnc1SCc1ccccc1)/c1ccco1 | 31.6 µM [falling, single point] |
| CCc1c(C)sc(NC(=O)C2CC2c2ccccc2)c1C(N)=O (stereo not given) | 0.0631 µM [falling, full curve, poor fit] |
| CCc1ccc(-c2nc3ccc(Br)cc3c(C(=O)O)c2C)s1 | 11.2 µM [rising, partial curve] |
| Cc1ccc(S(=O)(=O)NC(C(=O)Oc2ccc3c(C(F)(F)F)cc(=O)oc3c2)c2ccccc2)cc1 (stereo not given) | 12.6 µM [rising, single point] |
| Cc1cc(NC(=O)CCSc2nc(-c3ccco3)cc(C(F)(F)F)n2)n(-c2ccccc2)n1 | 0.126 µM [rising, single point] |
| CN(O)/C=C1\C(=O)Nc2ccccc21 | 31.6 µM [falling, single point] |
| CCC(=O)NCCc1c[nH]c2ccccc12 | 5.62 µM [falling, single point] |
| Cc1ccc(S(=O)(=O)c2c(N)n(/N=C/c3ccco3)c3nc4ccccc4nc23)cc1 | 0.02 µM [rising, full curve, poor fit] |
| Cn1c(SCc2c(Cl)cccc2Cl)nc(C(F)(F)F)cc1=O | 31.6 µM [falling, single point] |
| COc1cccc(NC(=O)CSc2nccn2-c2cccc(OC)c2)c1 | 0.0126 µM [rising, full curve, poor fit] |
| Cc1cccc(-c2nc3ccccc3c(=O)n2NC(=S)N(C)C)c1 | 31.6 µM [rising, single point] |
| Cc1ccc(-c2nnc(SCC(=O)N3CCc4ccccc43)o2)cc1 | 11.2 µM [rising, partial curve] |
| Cc1c(C(=O)O)nnn1-c1ccccc1 | 0.2 µM [falling, full curve, poor fit] |
| CC1CC(C)CN(CCCNC(=O)COc2cc(=O)n(C)c3ccccc23)C1 (stereo not given) | 0.251 µM [rising, full curve, poor fit] |
| COc1ccc(NS(=O)(=O)c2ccc(NS(=O)(=O)c3ccc4c(c3)OCCO4)cc2)cc1 | 17.8 µM [falling, single point] |
| CCOC(=O)Cc1csc(-n2sc3ccccc3c2=O)n1 | 31.6 µM [rising, single point] |
| Cc1ccc(S(=O)(=O)N2c3ccccc3NC(=O)CC2C)cc1 (stereo not given) | 35.5 µM [falling, single point] |
| CC(=O)NCC1=C(NC(C)=O)C2CC1C(C)(C)C2C (stereo not given) | 12.6 µM [falling, partial curve] |
| CC(Oc1ccc(Cl)cc1Cl)C(=O)N(Cc1ccco1)C1CCS(=O)(=O)C1 (stereo not given) | 35.5 µM [falling, partial curve, poor fit] |

Individual results from the results shown.
COc1cc(C)nc(N2CCCC(C(=O)Nc3cc(Cl)ccc3OC)C2)n1 (stereo not given) – AC50: 5.01 µM [rising, single point]
Cc1cccc(-c2nc3ccccc3c(=O)n2NC(=S)N(C)C)c1 – AC50: 31.6 µM [rising, single point]
Cc1ccc(S(=O)(=O)c2c(N)n(/N=C/c3ccco3)c3nc4ccccc4nc23)cc1 – AC50: 0.02 µM [rising, full curve, poor fit]

Later entries

| SMILES | AC50 |
| --- | --- |
| O=C(NCCc1ccccc1)/C(=N\O)c1ccccc1 | 0.158 µM [falling, single point] |
| CCN(CC)C(=O)CSc1nc2ncccc2[nH]1 | 0.01 µM [falling, full curve, poor fit] |
| Cc1ccc(S(=O)(=O)N2CCC(C(=O)N[C@H](C(=O)NCc3ccco3)C(C)C)CC2)cc1 | 2 µM [rising, partial curve] |
| CCOC(=O)C(C(=O)NCC1CCCO1)C1CCCCC1 (stereo not given) | 6.31 µM [falling, single point] |
| CC(=O)/C(C)=N\O | 20 µM [rising, single point] |
| CC(NC(=O)c1cn(C)c2ccc(S(=O)(=O)N3CCCC3)cc2c1=O)c1ccc2c(c1)OCCO2 (stereo not given) | 0.0501 µM [rising, full curve, poor fit] |
| CCOc1cc(-c2nc(-c3ccc(-c4ccc(OC)cc4)nc3OC)no2)cc(OCC)c1OCC | 1.58 µM [falling, partial curve] |
| O=C1CC(Sc2nnc(-c3ccccc3)o2)C(=O)N1c1ccccc1 (stereo not given) | 12.6 µM [rising, single point] |
| CC(C)N(C(=O)CSc1nc2ccccc2n1Cc1ccccc1F)C(C)C | 10 µM [falling, partial curve] |
| CC1CCN(c2oc(-c3cccc4ccccc34)nc2C#N)CC1 | 0.398 µM [falling, full curve, poor fit] |
| CC[n+]1cc(-c2ccccc2)nc(N2CCOCC2)n1 | 25.1 µM [falling, single point] |
| COc1c(C)cccc1C(=O)Nc1ccc(CN2CCOCC2)cc1 | 2.82 µM [rising, single point] |
| COc1ccc(N2C(=O)CC(N3CCC(O)(c4cccc(C(F)(F)F)c4)CC3)C2=O)cc1 (stereo not given) | 0.0126 µM [rising, full curve, poor fit] |
| COc1ccccc1NC(=O)COc1ccc(/C=N/NS(=O)(=O)c2ccc(C)cc2)cc1 | 1 µM [rising, full curve] |
| COCCNC(=O)c1c(N)n(-c2cccc(C)c2)c2nc3ccccc3nc12 | 0.0631 µM [falling, full curve, poor fit] |
| O=C(Nc1ccc(F)cc1F)NC1CC(=O)N(Cc2ccccc2)C1 (stereo not given) | 3.98 µM [falling, partial curve, poor fit] |
| O=C(Nc1ccc(C2CCCCC2)cc1)C1CCCN(c2ncccn2)C1 (stereo not given) | 0.0501 µM [falling, full curve] |
| O=C(Nc1ccc2c(c1)oc1ccccc12)C1CC1 | 3.98 µM [rising, single point] |
| O=C(Nc1ccccc1C(=O)NCCCn1ccnc1)c1ccc(Cl)cc1Cl | 0.0398 µM [falling, full curve] |
| C/C(=N/NS(=O)(=O)c1ccc(Br)cc1)c1ccc(NC(=O)c2ccc(C)o2)cc1 | 15.8 µM [falling, partial curve, poor fit] |
| COC(=O)c1[nH]c2c(c1C)C(=O)CC(c1cc(OC)ccc1OC)C2 (stereo not given) | 5.62 µM [rising, single point] |
| O=C1OC(c2cccs2)=N/C1=C\c1ccc(-c2ccccc2Cl)o1 | 6.31 µM [falling, single point] |

| SMILES | AC50 |
| --- | --- |
| COc1ccc(N(C(=O)c2ccco2)C(C(=O)NC2CCCC2)c2ccc(N(C)C)cc2)cc1OC (stereo not given) | 0.126 µM [falling, single point] |
| CCOC(=O)c1c(NC(=O)CSc2nnc(-c3ccco3)o2)sc(C(C)=O)c1C | 12.6 µM [rising, single point] |
| Cc1ccc(C)c(NC(=S)NC2CC3CCCC(C2)N3CC(C)C)c1 (stereo not given) | 0.2 µM [falling, full curve] |
| Cc1nonc1OCC(C)(COc1nonc1C)NC(=O)c1ccc(Cl)cc1 | 15.8 µM [falling, single point] |
| Cn1c(=O)c2c(nc(NCCCO)n2CCc2ccccc2)n(C)c1=O | 0.00316 µM [rising, full curve, poor fit] |
| Cc1cc(=O)oc2c3c4c(cc12)OCCN4CCC3 | 0.0126 µM [falling, full curve, poor fit] |
| CCOc1ccc(CCNC(=O)CSc2cc(=O)n(C)c3cc(Cl)ccc23)cc1OCC | 31.6 µM [rising, single point] |
| O=C(Nc1ccccc1N1CCN(c2ccc(F)cc2)CC1)C12CC3CC(CC(C3)C1)C2 | 0.158 µM [falling, full curve, poor fit] |
| CCc1ccc(C2c3c(oc4ccc(F)cc4c3=O)C(=O)N2c2nc(C)c(C(=O)OC)s2)cc1 (stereo not given) | 0.316 µM [falling, partial curve] |
| O=C(Nc1c(-c2ccccc2)nc2c(Br)cc(Br)cn12)c1ccco1 | 10 µM [rising, partial curve] |
| CN1CCN(CC(=O)Nc2sc3c(c2C#N)CCC(C(C)(C)C)C3)CC1 (stereo not given) | 31.6 µM [rising, single point] |
| COc1ccc(C2=NN(C(=O)CSc3ncccn3)C(c3ccc(C)cc3)C2)cc1 (stereo not given) | 4.47 µM [rising, single point] |
| CCC(C)NC(=O)CCc1c(C)nc2nc(-c3cc(OC)cc(OC)c3)nn2c1C (stereo not given) | 0.0158 µM [rising, full curve, poor fit] |
| O=C(CNc1ccccc1)N/N=C/c1ccc([N+](=O)[O-])o1 | 0.158 µM [falling, full curve, poor fit] |
| CCC(=O)N1CCc2cc(S(=O)(=O)NCCCN3CCN(Cc4ccccc4)CC3)ccc21 | 15.8 µM [falling, single point] |
| Cc1ccc(S(=O)(=O)C(C#N)c2nc3ccccc3nc2N2CCCC2)cc1 (stereo not given) | 10 µM [falling, partial curve, poor fit] |
| O=C(CSc1nc(Cc2ccccc2)nc2ccccc12)Nc1ccc2c(c1)OCCO2 | 0.794 µM [falling, full curve, poor fit] |
| Cc1ccc2oc(-c3ccc(NC(=O)c4ccc5c(c4)OCO5)cc3)nc2c1 | 0.794 µM [falling, full curve] |
| O=C(c1ccc(C(F)(F)F)cc1)N1CCCCC1 | 3.98 µM [rising, single point] |
| COC(=O)NNC(=O)COc1ccc(Cl)cc1 | 0.158 µM [falling, single point] |
| COc1cc(C2N(c3ccc(Cl)c(Cl)c3)C(=O)C3CCCN32)cc(OC)c1OC (stereo not given) | 5.01 µM [rising, full curve, poor fit] |
